Experimental data taken from PMC12822425.
These are yes or no findings as the source states them, for the method shown. In cells and extracts the contact can be indirect. Some entries that bind do so weakly or less than the wild type.

The chains behind the UniProt entries cited, without tags or fusion partners.
UniProt Q9UPY5: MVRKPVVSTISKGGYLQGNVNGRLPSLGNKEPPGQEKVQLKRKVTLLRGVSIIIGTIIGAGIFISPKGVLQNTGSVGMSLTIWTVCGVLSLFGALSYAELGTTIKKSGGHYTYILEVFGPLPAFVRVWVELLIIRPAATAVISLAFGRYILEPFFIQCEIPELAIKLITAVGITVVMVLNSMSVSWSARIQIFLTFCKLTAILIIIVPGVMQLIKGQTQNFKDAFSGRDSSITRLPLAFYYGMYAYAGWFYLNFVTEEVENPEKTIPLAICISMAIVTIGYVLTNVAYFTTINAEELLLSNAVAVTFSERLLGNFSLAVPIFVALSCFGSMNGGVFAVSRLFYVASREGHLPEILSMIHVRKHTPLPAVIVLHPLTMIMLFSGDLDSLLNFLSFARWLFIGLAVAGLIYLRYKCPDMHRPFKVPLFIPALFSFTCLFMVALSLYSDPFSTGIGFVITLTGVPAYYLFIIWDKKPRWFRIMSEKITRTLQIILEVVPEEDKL

Columns and labels:
[1] = target: endogenous SLC7A11 (human (endogenous in A549 and H1299)) (UniProt Q9UPY5); assay: co-IP; endogenous proteins in A549 and H1299 lysates; IP with anti-xCT or anti-CypA antibody at 4 °C overnight, magnetic beads; Western blot
[2] = target: endogenous SLC7A11 (human (endogenous in A549 and H1299)) (UniProt Q9UPY5); assay: co-IP; A549 and H1299 cells after CypA overexpression; IP with anti-xCT antibody; blot for CypA and TRIM3

binding [1]: binds | binding [2]: binds
B1: endogenous TRIM3 (enzyme, UniProt O75382 1-744)
chain: MAKREDSPGPEVQPMDKQFLVCSICLDRYQCPKVLPCLHTFCERCLQNYIPAQSLTLSCPVCRQTSILPEQGVSALQNNFFISSLMEAMQQAPDGAHDPEDPHPLSVVAGRPLSCPNHEGKTMEFYCEACETAMCGECRAGEHREHGTVLLRDVVEQHKAALQRQLEAVRGRLPQLSAAIALVGGISQQLQERKAEALAQISAAFEDLEQALQQRKQALVSDLETICGAKQKVLQSQLDTLRQGQEHIGSSCSFAEQALRLGSAPEVLLVRKHMRERLAALAAQAFPERPHENAQLELVLEVDGLRRSVLNLGALLTTSATAHETVATGEGLRQALVGQPASLTVTTKDKDGRLVRTGSAELRAEITGPDGTRLPVPVVDHKNGTYELVYTARTEGELLLSVLLYGQPVRGSPFRVRALRPGDLPPSPDDVKRRVKSPGGPGSHVRQKAVRRPSSMYSTGGKRKDNPIEDELVFRVGSRGREKGEFTNLQGVSAASSGRIVVADSNNQCIQVFSNEGQFKFRFGVRGRSPGQLQRPTGVAVDTNGDIIVADYDNRWVSIFSPEGKFKTKIGAGRLMGPKGVAVDRNGHIIVVDNKSCCVFTFQPNGKLVGRFGGRGATDRHFAGPHFVAVNNKNEIVVTDFHNHSVKVYSADGEFLFKFGSHGEGNGQFNAPTGVAVDSNGNIIVADWGNSRIQVFDSSGSFLSYINTSAEPLYGPQGLALTSDGHVVVADAGNHCFKAYRYLQ
